These are yes or no findings as the source states them, for the method shown. In cells and extracts the contact can be indirect. Some results given as binding are weak or reduced against the parent protein; the word gives no strength. For part of these data: Where a sequence is shown, tags or fusion partners need not be part of it.
Tests used:
Assay in all cases: co-IP; pulldown of GFP- or YFP-tagged fusion proteins with GFP Trap beads from U2OS lysates; EBC-150 buffer (50 mM Tris pH 7.5, 150 mM NaCl, 0.5% NP-40, 1 mM EDTA) with Benzonase; washes with 150/300 mM NaCl; immunoblot
[1] = molecular target: GFP-tagged RNF168 (GFP-RNF168^WT) (human) (UniProt Q8IYW5)
YFP-PALB2^WT (human) = molecular target: T1, YFP-PALB2^WT (human) (UniProt Q86YC2)
T1 sequence: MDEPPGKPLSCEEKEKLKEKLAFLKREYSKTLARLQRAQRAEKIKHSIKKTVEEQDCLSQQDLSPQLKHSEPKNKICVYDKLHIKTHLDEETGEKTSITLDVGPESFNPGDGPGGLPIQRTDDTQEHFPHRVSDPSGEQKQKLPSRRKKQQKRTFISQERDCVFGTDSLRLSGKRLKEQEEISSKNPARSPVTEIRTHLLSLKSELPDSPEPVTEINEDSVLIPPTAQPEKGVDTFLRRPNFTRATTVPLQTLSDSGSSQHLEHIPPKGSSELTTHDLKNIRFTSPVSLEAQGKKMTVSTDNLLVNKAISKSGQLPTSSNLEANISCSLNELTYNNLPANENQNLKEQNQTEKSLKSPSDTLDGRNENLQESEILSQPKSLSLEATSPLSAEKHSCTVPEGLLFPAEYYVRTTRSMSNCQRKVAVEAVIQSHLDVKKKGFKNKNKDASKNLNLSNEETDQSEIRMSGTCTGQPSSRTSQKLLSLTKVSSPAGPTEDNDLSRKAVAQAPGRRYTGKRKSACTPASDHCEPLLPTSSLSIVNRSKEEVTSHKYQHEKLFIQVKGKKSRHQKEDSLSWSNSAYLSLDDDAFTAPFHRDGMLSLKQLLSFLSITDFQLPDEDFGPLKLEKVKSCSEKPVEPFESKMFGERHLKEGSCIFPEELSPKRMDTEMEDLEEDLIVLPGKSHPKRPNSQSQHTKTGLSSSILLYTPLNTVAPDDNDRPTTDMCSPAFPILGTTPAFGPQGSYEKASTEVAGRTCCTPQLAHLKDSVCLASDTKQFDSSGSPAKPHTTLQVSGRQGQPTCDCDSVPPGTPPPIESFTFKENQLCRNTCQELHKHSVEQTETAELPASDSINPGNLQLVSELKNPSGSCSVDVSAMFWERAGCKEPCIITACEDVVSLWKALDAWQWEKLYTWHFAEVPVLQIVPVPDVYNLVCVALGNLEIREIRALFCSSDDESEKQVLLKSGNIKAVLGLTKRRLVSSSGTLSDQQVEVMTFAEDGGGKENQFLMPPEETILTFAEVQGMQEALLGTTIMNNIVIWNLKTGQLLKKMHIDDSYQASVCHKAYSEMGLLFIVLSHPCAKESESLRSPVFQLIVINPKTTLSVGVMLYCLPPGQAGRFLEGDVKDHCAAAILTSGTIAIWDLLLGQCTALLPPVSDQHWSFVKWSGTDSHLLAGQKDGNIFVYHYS

The chains behind the UniProt entries cited, without tags or fusion partners.
UniProt Q8IYW5: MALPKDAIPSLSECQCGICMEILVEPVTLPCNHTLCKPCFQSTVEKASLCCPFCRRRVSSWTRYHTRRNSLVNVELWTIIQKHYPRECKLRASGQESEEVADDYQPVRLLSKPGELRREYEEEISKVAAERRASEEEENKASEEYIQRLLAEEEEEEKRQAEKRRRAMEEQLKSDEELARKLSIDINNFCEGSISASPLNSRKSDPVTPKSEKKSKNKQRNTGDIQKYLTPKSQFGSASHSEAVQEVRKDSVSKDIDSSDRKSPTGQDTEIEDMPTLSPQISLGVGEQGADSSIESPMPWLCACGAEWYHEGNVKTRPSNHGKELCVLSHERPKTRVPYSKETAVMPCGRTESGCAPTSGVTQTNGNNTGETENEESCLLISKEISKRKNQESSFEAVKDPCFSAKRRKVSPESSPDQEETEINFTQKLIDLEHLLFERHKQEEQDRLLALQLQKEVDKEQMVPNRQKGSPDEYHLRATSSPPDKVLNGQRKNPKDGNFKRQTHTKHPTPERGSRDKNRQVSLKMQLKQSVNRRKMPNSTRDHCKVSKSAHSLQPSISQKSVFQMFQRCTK
UniProt P51587: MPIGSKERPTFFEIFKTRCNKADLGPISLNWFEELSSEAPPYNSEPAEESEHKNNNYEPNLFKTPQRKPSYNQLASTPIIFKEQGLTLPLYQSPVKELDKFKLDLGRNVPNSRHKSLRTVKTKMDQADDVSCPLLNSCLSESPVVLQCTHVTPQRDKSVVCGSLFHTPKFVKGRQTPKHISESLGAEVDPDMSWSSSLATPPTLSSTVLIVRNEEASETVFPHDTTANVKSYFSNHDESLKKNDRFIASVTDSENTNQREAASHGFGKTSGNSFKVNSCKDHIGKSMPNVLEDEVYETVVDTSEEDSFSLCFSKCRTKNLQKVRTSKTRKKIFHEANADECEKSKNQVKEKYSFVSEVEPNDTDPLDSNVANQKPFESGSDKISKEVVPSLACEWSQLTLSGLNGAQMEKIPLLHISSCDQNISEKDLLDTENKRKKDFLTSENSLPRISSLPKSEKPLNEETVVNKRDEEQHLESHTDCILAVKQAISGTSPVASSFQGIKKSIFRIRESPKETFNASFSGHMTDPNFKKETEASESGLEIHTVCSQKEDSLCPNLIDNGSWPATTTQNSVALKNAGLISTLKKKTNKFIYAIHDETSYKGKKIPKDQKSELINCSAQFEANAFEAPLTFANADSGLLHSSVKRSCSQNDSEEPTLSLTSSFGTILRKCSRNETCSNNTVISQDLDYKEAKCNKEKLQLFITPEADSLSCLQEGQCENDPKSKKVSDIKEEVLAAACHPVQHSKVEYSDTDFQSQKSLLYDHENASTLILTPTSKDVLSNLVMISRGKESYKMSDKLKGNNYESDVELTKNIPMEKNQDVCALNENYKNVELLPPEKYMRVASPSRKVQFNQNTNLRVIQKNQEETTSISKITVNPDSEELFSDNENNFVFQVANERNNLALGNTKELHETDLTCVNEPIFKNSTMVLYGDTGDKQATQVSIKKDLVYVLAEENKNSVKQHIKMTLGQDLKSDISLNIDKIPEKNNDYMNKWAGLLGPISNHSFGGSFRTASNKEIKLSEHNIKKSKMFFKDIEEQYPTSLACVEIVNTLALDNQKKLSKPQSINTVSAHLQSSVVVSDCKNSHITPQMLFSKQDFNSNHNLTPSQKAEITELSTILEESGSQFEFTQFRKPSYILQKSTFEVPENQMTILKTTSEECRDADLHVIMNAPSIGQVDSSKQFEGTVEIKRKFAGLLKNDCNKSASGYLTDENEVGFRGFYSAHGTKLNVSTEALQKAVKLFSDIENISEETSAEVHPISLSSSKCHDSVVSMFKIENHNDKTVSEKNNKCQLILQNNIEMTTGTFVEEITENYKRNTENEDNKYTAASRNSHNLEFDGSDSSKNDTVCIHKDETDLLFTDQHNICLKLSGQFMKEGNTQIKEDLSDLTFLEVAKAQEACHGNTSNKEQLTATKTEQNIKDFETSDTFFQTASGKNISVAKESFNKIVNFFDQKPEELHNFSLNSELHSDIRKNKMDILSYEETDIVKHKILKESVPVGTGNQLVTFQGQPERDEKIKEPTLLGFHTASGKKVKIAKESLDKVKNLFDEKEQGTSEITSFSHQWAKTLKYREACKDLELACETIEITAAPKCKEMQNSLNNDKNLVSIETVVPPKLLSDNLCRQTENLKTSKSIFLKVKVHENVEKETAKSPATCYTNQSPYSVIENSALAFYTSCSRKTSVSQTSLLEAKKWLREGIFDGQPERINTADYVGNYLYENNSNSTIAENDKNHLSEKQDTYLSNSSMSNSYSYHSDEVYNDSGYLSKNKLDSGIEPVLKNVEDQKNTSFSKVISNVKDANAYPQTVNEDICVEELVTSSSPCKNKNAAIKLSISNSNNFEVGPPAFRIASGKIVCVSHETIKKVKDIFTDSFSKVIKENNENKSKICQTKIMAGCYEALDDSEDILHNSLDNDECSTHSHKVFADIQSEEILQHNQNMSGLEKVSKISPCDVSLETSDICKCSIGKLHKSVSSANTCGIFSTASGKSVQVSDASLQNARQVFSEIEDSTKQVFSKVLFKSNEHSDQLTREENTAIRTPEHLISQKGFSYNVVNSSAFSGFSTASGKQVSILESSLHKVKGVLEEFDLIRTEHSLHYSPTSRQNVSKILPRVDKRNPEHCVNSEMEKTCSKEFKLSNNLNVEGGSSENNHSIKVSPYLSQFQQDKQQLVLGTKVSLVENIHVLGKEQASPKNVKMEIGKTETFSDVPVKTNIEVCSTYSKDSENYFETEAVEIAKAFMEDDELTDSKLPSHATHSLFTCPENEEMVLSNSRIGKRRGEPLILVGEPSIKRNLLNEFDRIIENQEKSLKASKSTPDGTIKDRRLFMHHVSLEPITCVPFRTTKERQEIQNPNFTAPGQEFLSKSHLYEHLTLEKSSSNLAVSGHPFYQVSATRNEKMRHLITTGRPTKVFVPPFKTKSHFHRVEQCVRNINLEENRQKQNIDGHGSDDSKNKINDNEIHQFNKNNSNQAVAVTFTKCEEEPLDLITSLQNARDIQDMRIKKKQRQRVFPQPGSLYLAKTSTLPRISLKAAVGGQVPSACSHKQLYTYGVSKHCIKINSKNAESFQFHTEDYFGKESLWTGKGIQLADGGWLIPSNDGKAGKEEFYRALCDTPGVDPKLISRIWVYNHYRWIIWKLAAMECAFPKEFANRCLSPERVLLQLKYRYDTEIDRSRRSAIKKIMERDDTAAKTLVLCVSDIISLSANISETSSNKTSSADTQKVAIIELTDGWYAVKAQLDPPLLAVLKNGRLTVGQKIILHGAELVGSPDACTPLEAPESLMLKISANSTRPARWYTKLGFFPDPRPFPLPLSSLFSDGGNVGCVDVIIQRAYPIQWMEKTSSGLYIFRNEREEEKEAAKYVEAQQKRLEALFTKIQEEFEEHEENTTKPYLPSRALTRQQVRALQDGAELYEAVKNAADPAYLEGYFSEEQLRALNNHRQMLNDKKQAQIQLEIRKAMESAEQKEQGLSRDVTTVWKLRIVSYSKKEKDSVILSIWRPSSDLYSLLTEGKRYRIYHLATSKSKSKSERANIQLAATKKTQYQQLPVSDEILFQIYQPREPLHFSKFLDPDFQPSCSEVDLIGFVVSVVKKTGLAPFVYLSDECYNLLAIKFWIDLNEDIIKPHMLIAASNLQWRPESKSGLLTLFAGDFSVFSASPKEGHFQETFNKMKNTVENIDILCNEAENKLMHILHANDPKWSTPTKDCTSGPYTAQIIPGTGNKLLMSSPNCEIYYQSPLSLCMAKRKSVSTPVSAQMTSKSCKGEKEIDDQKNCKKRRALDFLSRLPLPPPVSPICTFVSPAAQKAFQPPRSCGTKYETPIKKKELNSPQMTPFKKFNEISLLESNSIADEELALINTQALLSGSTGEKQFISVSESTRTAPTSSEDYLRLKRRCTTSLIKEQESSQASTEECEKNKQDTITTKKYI

[2] = molecular target: T2, YFP-PALB2^ΔWD40 (T7) (human) (UniProt Q86YC2)
T2 sequence: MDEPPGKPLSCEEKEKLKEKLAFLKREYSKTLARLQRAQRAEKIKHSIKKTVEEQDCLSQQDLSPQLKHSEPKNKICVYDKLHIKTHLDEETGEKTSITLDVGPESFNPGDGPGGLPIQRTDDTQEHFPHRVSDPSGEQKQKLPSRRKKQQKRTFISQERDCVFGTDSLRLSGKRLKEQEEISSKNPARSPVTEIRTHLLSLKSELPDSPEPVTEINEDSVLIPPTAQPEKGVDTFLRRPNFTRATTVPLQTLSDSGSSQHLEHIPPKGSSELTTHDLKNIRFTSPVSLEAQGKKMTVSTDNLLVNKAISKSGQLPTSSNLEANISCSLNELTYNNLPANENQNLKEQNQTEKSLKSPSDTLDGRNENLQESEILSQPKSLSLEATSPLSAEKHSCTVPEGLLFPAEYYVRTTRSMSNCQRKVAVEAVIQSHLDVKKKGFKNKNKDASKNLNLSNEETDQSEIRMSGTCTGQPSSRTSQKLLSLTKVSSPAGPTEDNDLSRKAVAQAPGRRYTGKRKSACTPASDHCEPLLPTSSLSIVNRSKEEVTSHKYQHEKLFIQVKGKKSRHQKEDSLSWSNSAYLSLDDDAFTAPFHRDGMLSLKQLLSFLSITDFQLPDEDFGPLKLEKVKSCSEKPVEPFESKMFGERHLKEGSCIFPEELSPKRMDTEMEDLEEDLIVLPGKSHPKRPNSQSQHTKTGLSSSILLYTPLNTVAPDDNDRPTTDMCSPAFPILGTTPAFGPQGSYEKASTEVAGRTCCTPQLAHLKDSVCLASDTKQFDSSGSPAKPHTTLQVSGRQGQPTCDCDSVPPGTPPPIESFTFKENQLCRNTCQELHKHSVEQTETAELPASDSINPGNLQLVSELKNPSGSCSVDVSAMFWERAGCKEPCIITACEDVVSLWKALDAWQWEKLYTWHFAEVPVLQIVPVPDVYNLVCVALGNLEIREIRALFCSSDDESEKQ

binding [1]	binding (YFP-PALB2^WT (human))	binding [2]	Substance
binds	–	–	endogenous BRCA2 (from UniProt P51587 1-3418)
–	binds	binds weakly	mCherry-RNF168 (from UniProt Q8IYW5 1-571)

Reference: paper PMC5328590
